Reference: paper doi:10.1101/350256
No constants are given. Whether binding was seen depends on the method and setting. In cells and extracts the contact can be indirect. Here binding means that the protein was enriched with, or labelled near, the bait; the list need not be complete. Where a sequence is shown, tags or fusion partners need not be part of it.

Biological target: T1, TAP-tagged MERS1 NUDIX hydrolase (Trypanosoma brucei) (UniProt B6SBM0)
T1 sequence: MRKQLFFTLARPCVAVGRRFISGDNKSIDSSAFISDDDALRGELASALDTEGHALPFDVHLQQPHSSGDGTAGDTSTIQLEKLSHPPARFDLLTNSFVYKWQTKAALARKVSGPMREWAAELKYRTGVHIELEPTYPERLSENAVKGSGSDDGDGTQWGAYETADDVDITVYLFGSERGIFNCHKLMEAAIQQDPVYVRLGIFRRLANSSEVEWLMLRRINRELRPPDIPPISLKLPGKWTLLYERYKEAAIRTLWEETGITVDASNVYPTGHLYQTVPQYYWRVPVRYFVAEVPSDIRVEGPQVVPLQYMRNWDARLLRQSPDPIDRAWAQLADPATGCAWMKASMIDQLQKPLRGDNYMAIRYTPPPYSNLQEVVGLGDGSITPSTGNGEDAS
Test: affinity purification with mass spectrometry

MERS2 pentatricopeptide repeat-containing (PPR) protein, endogenous
binding: binds
